# Out of some 300,000 compounds screened, about 5,400 (1.8%) were called active. This list was built around the results that the source calls inconclusive (neither active nor inactive); the mix of calls is not that of the screen. Calls come from the whole dose curve; tested in HEK293 cells. Potencies of inconclusive entries are doubtful fits and often do not repeat.
# Assay: qHTS for inhibitors of binding or entry into cells for Marburg Virus
# Settings: Marburg virus pseudotyped entry inhibition, cell reporter; activity change, negative = inhibition: at 37.8 µM (top of the series) unless noted
# % is set by controls: 0 for no effect and ±100 for the full control effect; potency is the fitted concentration of half-maximal effect.
Structure (SMILES),Potency,"activity change, negative = inhibition"
CC1C(=O)N(Cc2ccc([N+](=O)[O-])cc2)c2ccccc2N1C(=O)c1c(F)cccc1F (stereo not drawn),"inconclusive: 35.5 µM [inhibitor, single point]",
NC(=O)c1ccc(NCc2ccco2)c([N+](=O)[O-])c1,"inconclusive: 0.708 µM [activator, full curve, poor fit]",
Cc1ccc(/C=C2\SC(=S)N(CCCC(=O)Nc3ccccn3)C2=O)cc1,"inconclusive: 7.08 µM [inhibitor, full curve]",
CSC1=NSC2=NC(=O)/C(=C\c3coc4ccccc4c3=O)C(=N)N12,"inconclusive: 17.8 µM [activator, single point]",
Cc1cc(NC(=O)c2cc(-c3ccc(Cl)cc3)on2)nn1Cc1ccc(Cl)cc1,"inconclusive: 3.55 µM [activator, single point]",
COc1ccc(OC)c(-n2c(=S)[nH]c3cc(C(=O)N4CCCCC4)ccc3c2=O)c1,"inconclusive: 0.316 µM [activator, partial curve, poor fit]",
CCOC(=O)c1cnc(SCCN2CCOCC2)nc1N,"inconclusive: 2.82 µM [activator, single point]",
COc1cc(NC(=O)c2ccccc2NS(=O)(=O)c2ccc(Cl)s2)cc(OC)c1,"inconclusive: 20.6 µM [inhibitor, single point]",
CCC(=O)N1CCc2cc(Br)cc(S(=O)(=O)NCCN3CCCCC3C)c21 (stereo not drawn),"inconclusive: 2 µM [activator, partial curve, poor fit]",
CCCS(=O)(=O)c1ccc(COC(=O)c2cccc(NC(=O)C(C)C)c2)cc1,"inconclusive: 35.5 µM [inhibitor, single point]",
Cc1ccc(-c2nc3ncccc3o2)cc1NC(=O)c1cccc(OCC(C)C)c1,,inactive: 6.54% [at 46.1 µM]
O=C(NCC1CCCC(CNC(=O)Nc2ccc(Cl)cn2)C1)Nc1ccc(Cl)cn1 (stereo not drawn),"inconclusive: 15.8 µM [inhibitor, partial curve, poor fit]",
COc1ccc(CCNC(=O)CCCCn2c(=O)c3ccccc3n(Cc3ccc(F)cc3Cl)c2=O)cc1OC,,inactive: 0.993% [at 46.1 µM]
Cc1nc(SCC#N)c2c3c(sc2n1)CCC3,,inactive: 0.841%
CCCCc1nnc(NC(=O)C(C)Sc2nc(N)cc(=O)[nH]2)s1 (stereo not drawn),"inconclusive: 0.58 µM [activator, single point]",
CN(CC(=O)Nc1cccc(F)c1)C(=O)C1CC(=O)N(Cc2ccco2)C1 (stereo not drawn),,inactive: -0.532% [at 46.1 µM]
CN(C)CCOC(C1CCCCC1)C1CCCCC1,"inconclusive: 29.1 µM [inhibitor, single point]",
CNC(=S)NNc1nc(-c2ccccc2)c2cc(Cl)ccc2n1,"inconclusive: 0.794 µM [inhibitor, full curve, poor fit]",
Fc1ccc(-n2ncc3c(SCc4cccnc4)ncnc32)cc1,"inconclusive: 28.2 µM [inhibitor, single point]",
COc1ccc(NC(=O)c2oc3ccccc3c2NC(=O)COc2ccccc2OC)c(OC)c1,"inconclusive: 29.1 µM [inhibitor, single point]",
CC1(C)N=C(N)N=C(N)N1c1ccc(Oc2ccc(Cl)cc2)c(Cl)c1,"inconclusive: 12.6 µM [inhibitor, partial curve]",
COc1cccc(/C=N/NC(=O)NC23CC4CC(CC(C4)C2)C3)c1O,"inconclusive: 1.41 µM [inhibitor, full curve, poor fit]",
Cc1cc(N2CCC(C)CC2)n2ncc(-c3ccccc3)c2n1,"inconclusive: 10 µM [inhibitor, partial curve, poor fit]",

# An excerpt of these results, bar-delimited.
Structure (SMILES) | Potency | activity change, negative = inhibition
COc1cc(NC(=O)c2ccccc2NS(=O)(=O)c2ccc(Cl)s2)cc(OC)c1 | inconclusive: 20.6 µM [inhibitor, single point] | 
CCC(=O)N1CCc2cc(Br)cc(S(=O)(=O)NCCN3CCCCC3C)c21 (stereo not drawn) | inconclusive: 2 µM [activator, partial curve, poor fit] | 

# Further compounds.

Structure (SMILES),Potency,"activity change, negative = inhibition"
O=C(Nc1ccc(-c2cccc(F)c2)cc1)C1CCCN(Cc2ccccn2)C1 (stereo not drawn),"inconclusive: 22.4 µM [inhibitor, single point]",
Cc1cccc(OCC(=O)Nc2ccccc2N2CCCC2)c1C,"inconclusive: 15.8 µM [inhibitor, partial curve, poor fit]",
CCOC(=O)C(C)Oc1cccc2c(=O)n(CC(=O)Nc3ccc4c(c3)OCCO4)ccc12 (stereo not drawn),inactive,
COc1ccc(CNC(=O)CN(Cc2ccccc2)C(=O)CCC(=O)Nc2ccccn2)cc1,"inconclusive: 6.31 µM [activator, single point]",
COc1ccc(/C=C/C(=O)N[C@@H](C)C(=O)O)cc1,,inactive: -27.8%
CCn1c(CC(=O)Nc2ccc(Cl)c(Cl)c2)nnc1SCc1ccc(C)cc1,,inactive: 4.37%
COc1cccc(OCc2nc3ccccc3n2CCOc2ccccc2C)c1,"inconclusive: 35.5 µM [inhibitor, single point]",
COCCCNCCCCSc1ccc(Cl)cc1,"inconclusive: 29.1 µM [inhibitor, single point]",
c1ccc([C@H]2Nc3ccccc3-c3nc4ccccc4n32)nc1,"inconclusive: 15.8 µM [inhibitor, single point]",
COc1ccc(C(CC(=O)c2ccc(C)cc2)Nc2ccc([N+](=O)[O-])cc2)cc1 (stereo not drawn),"inconclusive: 0.1 µM [inhibitor, full curve, poor fit]",
Cc1ccc(CCC(=O)Nc2ccc(Cl)cc2)o1,,inactive: 1.56% [at 46.1 µM]
Cc1nc(C)c(-c2csc(NCc3ccco3)n2)s1,,inactive: 14.8%
Cc1c2ccccc2nc2c(F)c(NC(C)C)c(F)c(F)c12,"inconclusive: 5.62 µM [activator, single point]",
O=C(Nc1ccc(Br)cc1)c1nn(C23CC4CC(CC(C4)C2)C3)cc1Br,,inactive: -16.5%
CN(C(=O)COC(=O)c1ccccc1SCC(=O)NC1CCCCCCC1)C1CCS(=O)(=O)C1 (stereo not drawn),"inconclusive: 0.398 µM [activator, full curve, poor fit]",
CCCC(=O)NC(c1ccc(OC)cc1)c1ccc2cccnc2c1O (stereo not drawn),"inconclusive: 1.12 µM [inhibitor, full curve, poor fit]",
CN(C)CCCNC(=O)C(=O)Nc1ccc2c(c1)N(S(=O)(=O)c1cccs1)CCC2,"inconclusive: 22.4 µM [inhibitor, single point]",
COc1ccc(CSc2nnnn2C)cc1F,"inconclusive: 35.5 µM [activator, single point]",
O=C1NC(=O)N(c2ccc3c(c2)OCO3)C(=O)/C1=C\c1ccc(-c2ccccc2C(=O)O)o1,,inactive: 15.9% [at 46.1 µM]
O=C(N/C(=C/c1cccs1)C(=O)N1CCOCC1)c1ccco1,"inconclusive: 14.1 µM [activator, single point]",
COc1nc(N(C)C)nc(N(OC)S(=O)(=O)c2ccccc2Cl)n1,,inactive: -25.2%
O=C(Cn1cc(Cl)ccc1=O)c1ccc(Cl)cc1,"inconclusive: 18.4 µM [activator, partial curve, poor fit]",
O=C(NCCC1=CCCCC1)c1cnsn1,,inactive: -17% [at 46.1 µM]

Structure (SMILES),Potency,"activity change, negative = inhibition"
CCCOc1cccc(-c2cc(-c3n[nH]c(=S)n3CC)c3ccccc3n2)c1,"inconclusive: 18.3 µM [inhibitor, partial curve]",
CCOc1ccccc1N1CCN(CC(O)COC2CCCc3ccccc32)CC1 (stereo not drawn),"inconclusive: 29.1 µM [inhibitor, single point]",
CC#CCN(CC#CC)S(=O)(=O)c1ccc(-n2cnnn2)c(OC)c1,"inconclusive: 5.62 µM [activator, single point]",
COc1ccc2[nH]c3c(c2c1)CCNC3,"inconclusive: 35.5 µM [inhibitor, single point]",
COc1ccc(OCCSc2nc3ccccc3n2CC(=O)O)cc1,"inconclusive: 4.61 µM [inhibitor, partial curve, poor fit]",
C=CCNc1nc(Cl)nc(Nc2ccc([N+](=O)[O-])cc2)n1,"inconclusive: 15.8 µM [activator, single point]",
O=C(CSc1ccsc1[N+](=O)[O-])N1CCCCC1,"inconclusive: 12.6 µM [activator, partial curve, poor fit]",
N/C(Cc1ccc(Cl)c(Cl)c1)=N\OC(=O)c1cccs1,,inactive: -5.99%
CCn1ncc(Br)c1C(=O)Nc1ccc(C(C)C)cc1,active: 12.6 µM,
COc1ncnc2sc(-c3ccccc3)cc12,,inactive: -1.07%
COC(=O)c1ccc(Oc2nc(N3CCCCC3)nc(N3CCOCC3)n2)cc1,"inconclusive: 29.1 µM [inhibitor, single point]",
COc1ccccc1N(C)S(=O)(=O)c1ccc(C(=O)N2CCCc3ccccc32)cc1,"inconclusive: 12.6 µM [inhibitor, partial curve, poor fit]",
O=S(=O)(N/N=C\C=C\c1ccccc1)c1ccc(Br)cc1,"inconclusive: 0.562 µM [inhibitor, full curve, poor fit]",
CCCc1nc2ccccc2n2c(-c3cccc(C)c3)c3c(=O)n(C)c(=O)n(C)c3c12,"inconclusive: 2.82 µM [activator, single point]",
Cc1ccc([C@H]2C(C#N)=C(N)Oc3cc(C)oc(=O)c32)o1,,inactive: 5.4% [at 46.1 µM]
Cc1ccc(OCC(=O)Nc2nnc(C3CCCO3)s2)c(Br)c1 (stereo not drawn),,inactive: 14.3% [at 46.1 µM]
CCc1nnc(SCc2ccc(OC)c(Br)c2)n1N,"inconclusive: 0.282 µM [activator, full curve, poor fit]",
CCOC(=O)c1ccc(NC(=O)C(Cc2ccccc2)NS(=O)(=O)c2ccc(Br)s2)cc1 (stereo not drawn),,inactive: -0.103% [at 46.1 µM]
Cn1c(SCC(=O)Nc2ccc(Cl)cc2)nnc1C1CC1,,inactive: -1.82% [at 46.1 µM]
CC(C)(C)c1cc(-n2ccnc2)n2ncc(-c3ccc(Cl)cc3)c2n1,"inconclusive: 4.11 µM [activator, single point]",
CCn1nc(C)c(/C=N/NC(=O)Cc2ccc(Cl)cc2)c1C,"inconclusive: 1.26 µM [activator, single point]",
CCOC(=O)C(C(=O)OCC)C(C(=O)OCC)N1CCOCC1 (stereo not drawn),"inconclusive: 12.6 µM [inhibitor, partial curve, poor fit]",

# Reprinted at random: 2 entries already listed
Structure (SMILES),Potency,"activity change, negative = inhibition"
CCOc1ccccc1N1CCN(CC(O)COC2CCCc3ccccc32)CC1 (stereo not drawn),"inconclusive: 29.1 µM [inhibitor, single point]",
Cn1c(SCC(=O)Nc2ccc(Cl)cc2)nnc1C1CC1,,inactive: -1.82% [at 46.1 µM]

# — PubChem BioAssay AID540276 (National Center for Advancing Translational Sciences (NCATS), 2011)
